The hits were mostly taken out for another list; the other results follow.
Molecular target: Relaxin receptor 1 (Homo sapiens) (UniProt Q9HBX9)
Test: qHTS Assay for Antagonists of the Relaxin Receptor RXFP1
Details: HEK293-RXFP1, relaxin-stimulated cAMP HTRF, 30 min; at 57.5 µM; stronger effect = lower value
Text: The relaxin hormone is involved in the variety of biological functions in normal tissues and diseases. The role of relaxin is well-established in female reproduction and parturition, mammary gland and endometrial development, maintenance of myometrial quiescence during pregnancy. Relaxin signaling through its G protein-coupled receptor (GPCR) RXFP1 results in ECM remodeling through regulation of collagen deposition, cell invasiveness, proliferation and overall tissue homeostasis. […] Recombinant human relaxin (rhRlx) is currently being tested in clinical trials as a protective agent in congestive heart failure, in treating severe preeclampsia, and as an anti-fibrotic agent in various organs. […] Upon relaxin binding RXFP1 activation leads to the activation of adenylate cyclase (AC) via G?s. cAMP will activate PKA, which phosphorylates many signaling proteins. […] RXFP1 activation by relaxin in presence of various concentrations of tested compounds was assayed by changes in cAMP levels as detected with a time-resolved fluorescence energy transfer (TR-FRET) cAMP detection kit.
For the primary screening, we used HTRF(R) (Homogenous Time-Resolved Fluorescence) cAMP HiRange assay (Cisbio Bioassays, 62AM6PEJ). […] The EC50 values were determined from concentration-response data modeled with the standard Hill equation. […]
% is set by controls: 0 for no effect and ±100 for the full control effect.

Chains of the proteins cited; added tags and fusions are not shown. Lines headed by an entry give the natural chain unless they say otherwise; changes in a name come on top.
UniProt Q9HBX9: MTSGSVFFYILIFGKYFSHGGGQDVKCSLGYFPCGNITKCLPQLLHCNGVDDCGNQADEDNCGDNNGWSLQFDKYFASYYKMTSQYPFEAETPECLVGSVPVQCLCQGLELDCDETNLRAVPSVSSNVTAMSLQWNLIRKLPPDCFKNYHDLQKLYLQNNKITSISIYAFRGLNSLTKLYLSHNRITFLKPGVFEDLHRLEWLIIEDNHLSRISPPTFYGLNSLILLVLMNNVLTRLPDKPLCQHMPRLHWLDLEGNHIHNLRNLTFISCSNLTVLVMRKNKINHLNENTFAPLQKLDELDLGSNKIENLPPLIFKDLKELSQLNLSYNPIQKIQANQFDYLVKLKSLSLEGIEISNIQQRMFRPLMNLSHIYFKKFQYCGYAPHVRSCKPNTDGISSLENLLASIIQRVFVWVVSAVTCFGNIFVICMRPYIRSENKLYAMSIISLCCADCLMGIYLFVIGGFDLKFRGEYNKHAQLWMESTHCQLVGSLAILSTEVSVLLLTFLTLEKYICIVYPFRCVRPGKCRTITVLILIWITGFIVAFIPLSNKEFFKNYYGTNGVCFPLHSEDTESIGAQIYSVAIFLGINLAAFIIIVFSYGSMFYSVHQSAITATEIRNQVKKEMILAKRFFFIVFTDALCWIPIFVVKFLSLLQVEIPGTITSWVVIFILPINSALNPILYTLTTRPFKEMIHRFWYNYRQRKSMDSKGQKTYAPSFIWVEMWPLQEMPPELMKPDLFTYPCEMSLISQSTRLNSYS

SMILES | activity change, negative = inhibition [%]
Nc1ccc(N)c([N+](=O)[O-])c1 | -147
